In the supplement of paper PMC11006884:
Only a part is listed here, and it is no random draw.

Protein sequences, listed by entry. Tags and fused reporters are not part of them. Lines headed by an entry give the natural chain unless they say otherwise; changes in a name come on top.
UniProt P08240: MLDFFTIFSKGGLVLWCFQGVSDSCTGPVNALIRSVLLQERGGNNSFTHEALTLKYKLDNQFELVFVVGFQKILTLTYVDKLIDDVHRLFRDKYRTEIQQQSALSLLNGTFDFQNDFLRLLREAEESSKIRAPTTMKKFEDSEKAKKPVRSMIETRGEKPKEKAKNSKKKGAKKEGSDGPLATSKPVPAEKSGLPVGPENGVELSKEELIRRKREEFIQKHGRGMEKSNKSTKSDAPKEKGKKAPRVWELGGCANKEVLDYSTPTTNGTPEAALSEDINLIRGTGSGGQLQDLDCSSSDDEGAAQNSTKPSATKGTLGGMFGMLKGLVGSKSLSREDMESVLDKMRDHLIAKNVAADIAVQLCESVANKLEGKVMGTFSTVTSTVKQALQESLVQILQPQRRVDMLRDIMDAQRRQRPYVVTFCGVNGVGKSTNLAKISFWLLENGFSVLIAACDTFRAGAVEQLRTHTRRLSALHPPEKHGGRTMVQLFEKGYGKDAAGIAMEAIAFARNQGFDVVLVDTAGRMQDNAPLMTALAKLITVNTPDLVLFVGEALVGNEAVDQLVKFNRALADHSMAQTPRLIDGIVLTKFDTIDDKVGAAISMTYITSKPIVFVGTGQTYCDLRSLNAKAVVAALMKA
UniProt P14866: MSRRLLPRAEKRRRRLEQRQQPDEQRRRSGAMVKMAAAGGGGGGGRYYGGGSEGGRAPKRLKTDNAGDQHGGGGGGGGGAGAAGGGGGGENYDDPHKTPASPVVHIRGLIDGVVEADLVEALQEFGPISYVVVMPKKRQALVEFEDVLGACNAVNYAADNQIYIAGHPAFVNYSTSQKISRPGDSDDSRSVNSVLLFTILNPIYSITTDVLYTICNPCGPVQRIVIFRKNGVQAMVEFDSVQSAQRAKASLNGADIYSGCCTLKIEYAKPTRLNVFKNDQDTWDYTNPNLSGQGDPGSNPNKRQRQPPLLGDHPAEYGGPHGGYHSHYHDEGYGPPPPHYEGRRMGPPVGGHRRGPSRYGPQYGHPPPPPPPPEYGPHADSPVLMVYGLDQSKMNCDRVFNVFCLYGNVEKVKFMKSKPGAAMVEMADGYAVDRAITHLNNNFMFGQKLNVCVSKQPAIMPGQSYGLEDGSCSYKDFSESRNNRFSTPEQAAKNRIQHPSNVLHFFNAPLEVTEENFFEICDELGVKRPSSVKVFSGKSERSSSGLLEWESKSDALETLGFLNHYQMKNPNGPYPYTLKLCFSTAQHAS
UniProt P09874, whole entry, looked up: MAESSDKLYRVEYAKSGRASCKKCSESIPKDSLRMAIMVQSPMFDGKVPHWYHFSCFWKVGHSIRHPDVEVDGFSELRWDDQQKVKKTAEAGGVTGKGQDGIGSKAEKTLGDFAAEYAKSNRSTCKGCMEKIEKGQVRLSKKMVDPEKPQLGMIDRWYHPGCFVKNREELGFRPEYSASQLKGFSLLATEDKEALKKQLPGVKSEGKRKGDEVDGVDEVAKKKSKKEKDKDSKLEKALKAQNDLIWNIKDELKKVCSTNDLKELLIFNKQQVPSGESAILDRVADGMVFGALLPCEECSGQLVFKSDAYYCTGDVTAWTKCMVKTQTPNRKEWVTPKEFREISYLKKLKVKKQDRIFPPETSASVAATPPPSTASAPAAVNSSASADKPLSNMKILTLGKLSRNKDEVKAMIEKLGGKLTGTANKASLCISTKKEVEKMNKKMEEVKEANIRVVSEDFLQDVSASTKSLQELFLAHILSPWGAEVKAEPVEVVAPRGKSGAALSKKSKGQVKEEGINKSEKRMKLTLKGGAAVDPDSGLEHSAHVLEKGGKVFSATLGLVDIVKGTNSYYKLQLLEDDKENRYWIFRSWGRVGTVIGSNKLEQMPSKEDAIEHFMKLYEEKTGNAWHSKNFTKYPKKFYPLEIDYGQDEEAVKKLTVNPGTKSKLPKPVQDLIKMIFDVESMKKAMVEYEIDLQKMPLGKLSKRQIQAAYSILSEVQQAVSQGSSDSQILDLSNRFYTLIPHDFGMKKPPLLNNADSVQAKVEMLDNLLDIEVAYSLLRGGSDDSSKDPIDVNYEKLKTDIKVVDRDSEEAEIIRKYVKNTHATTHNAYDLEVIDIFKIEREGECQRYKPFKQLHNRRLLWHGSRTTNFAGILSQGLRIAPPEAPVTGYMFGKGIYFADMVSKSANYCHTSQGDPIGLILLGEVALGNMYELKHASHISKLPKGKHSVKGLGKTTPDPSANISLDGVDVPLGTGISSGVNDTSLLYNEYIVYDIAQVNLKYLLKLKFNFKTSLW
UniProt P14618, whole entry, looked up: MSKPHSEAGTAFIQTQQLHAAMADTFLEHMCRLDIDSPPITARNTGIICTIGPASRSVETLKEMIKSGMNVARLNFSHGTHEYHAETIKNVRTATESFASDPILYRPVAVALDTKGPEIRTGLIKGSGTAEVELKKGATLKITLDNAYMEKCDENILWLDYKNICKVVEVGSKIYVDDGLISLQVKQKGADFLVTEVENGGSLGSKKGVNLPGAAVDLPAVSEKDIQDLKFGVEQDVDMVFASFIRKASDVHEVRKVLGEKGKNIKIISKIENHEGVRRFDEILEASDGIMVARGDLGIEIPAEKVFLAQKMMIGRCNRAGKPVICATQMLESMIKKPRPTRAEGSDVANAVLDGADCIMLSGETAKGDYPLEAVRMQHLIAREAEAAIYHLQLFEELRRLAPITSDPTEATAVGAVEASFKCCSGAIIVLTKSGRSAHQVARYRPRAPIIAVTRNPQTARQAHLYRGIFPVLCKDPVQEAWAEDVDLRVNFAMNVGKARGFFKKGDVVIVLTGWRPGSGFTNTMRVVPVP
UniProt P14314: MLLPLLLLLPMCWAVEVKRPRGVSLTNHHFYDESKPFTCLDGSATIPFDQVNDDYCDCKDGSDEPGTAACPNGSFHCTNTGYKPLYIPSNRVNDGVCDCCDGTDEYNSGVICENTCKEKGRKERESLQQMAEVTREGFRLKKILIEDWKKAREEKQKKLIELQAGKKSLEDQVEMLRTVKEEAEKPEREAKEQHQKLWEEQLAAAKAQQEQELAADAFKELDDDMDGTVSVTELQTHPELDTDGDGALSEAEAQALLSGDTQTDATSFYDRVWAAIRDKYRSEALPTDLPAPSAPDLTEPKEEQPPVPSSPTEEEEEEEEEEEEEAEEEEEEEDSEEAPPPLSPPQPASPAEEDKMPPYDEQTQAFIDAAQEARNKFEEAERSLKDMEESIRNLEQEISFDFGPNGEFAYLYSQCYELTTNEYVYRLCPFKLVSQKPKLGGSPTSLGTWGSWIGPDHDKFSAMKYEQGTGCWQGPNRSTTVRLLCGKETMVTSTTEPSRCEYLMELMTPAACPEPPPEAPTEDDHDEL
UniProt P14735, whole entry, looked up: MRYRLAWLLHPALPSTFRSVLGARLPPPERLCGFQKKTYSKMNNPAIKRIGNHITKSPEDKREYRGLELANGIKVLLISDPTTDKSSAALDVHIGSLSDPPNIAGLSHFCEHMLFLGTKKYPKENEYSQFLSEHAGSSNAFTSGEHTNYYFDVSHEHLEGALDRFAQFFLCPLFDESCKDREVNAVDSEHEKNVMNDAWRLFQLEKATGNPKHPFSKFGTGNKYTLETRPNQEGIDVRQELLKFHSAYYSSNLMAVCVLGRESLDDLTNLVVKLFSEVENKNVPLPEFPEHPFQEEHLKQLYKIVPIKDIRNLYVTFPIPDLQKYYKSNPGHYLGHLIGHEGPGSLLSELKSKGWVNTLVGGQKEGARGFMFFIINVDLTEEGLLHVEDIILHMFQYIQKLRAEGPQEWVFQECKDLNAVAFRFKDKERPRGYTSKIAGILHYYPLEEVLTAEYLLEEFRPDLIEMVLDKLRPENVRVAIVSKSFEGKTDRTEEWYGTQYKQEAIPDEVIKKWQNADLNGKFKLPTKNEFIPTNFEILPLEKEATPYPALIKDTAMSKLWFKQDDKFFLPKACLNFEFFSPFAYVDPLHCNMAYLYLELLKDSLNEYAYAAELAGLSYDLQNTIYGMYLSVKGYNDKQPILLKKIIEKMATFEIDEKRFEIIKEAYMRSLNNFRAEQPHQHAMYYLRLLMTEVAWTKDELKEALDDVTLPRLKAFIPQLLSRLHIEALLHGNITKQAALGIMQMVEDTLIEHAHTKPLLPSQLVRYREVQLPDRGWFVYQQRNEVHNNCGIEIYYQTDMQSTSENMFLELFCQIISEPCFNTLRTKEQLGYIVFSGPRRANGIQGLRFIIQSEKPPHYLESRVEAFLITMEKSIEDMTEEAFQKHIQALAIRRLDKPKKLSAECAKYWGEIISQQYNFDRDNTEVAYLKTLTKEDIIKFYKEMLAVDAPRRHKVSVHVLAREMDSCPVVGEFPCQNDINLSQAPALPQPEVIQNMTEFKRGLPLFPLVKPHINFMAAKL
UniProt P13489: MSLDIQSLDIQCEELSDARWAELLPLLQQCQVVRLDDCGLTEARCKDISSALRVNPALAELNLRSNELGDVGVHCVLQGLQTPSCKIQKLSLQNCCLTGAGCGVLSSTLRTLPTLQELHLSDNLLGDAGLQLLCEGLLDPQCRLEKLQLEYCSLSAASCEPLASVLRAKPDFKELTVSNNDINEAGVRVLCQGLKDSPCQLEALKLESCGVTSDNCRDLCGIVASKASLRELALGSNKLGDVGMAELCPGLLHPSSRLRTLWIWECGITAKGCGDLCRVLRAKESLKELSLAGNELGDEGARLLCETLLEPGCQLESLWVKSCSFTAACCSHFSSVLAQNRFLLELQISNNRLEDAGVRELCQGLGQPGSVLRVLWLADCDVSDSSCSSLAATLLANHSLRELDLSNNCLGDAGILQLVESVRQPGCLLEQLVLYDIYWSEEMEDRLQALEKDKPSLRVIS
UniProt P10636, whole entry: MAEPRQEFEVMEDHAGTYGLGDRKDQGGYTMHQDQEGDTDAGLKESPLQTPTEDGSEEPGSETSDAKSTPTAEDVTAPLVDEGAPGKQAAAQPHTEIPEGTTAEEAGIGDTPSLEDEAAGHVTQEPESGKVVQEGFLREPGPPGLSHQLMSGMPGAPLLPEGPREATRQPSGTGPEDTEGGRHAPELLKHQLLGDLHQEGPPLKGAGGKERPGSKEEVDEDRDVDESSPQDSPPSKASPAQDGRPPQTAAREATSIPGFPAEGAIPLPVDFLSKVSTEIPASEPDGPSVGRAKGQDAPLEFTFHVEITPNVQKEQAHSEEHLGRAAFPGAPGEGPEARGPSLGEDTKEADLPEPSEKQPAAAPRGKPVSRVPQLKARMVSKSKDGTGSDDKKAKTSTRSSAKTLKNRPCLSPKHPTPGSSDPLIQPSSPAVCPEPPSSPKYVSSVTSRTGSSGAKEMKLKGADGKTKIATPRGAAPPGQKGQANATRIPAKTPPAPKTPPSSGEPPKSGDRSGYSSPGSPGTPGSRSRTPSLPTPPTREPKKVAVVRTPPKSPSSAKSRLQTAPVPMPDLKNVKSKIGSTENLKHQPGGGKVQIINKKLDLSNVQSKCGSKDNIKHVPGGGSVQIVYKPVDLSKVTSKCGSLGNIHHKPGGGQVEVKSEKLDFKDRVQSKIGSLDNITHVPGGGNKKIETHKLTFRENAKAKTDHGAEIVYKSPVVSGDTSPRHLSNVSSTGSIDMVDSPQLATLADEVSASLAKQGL
UniProt P11142, whole entry, looked up: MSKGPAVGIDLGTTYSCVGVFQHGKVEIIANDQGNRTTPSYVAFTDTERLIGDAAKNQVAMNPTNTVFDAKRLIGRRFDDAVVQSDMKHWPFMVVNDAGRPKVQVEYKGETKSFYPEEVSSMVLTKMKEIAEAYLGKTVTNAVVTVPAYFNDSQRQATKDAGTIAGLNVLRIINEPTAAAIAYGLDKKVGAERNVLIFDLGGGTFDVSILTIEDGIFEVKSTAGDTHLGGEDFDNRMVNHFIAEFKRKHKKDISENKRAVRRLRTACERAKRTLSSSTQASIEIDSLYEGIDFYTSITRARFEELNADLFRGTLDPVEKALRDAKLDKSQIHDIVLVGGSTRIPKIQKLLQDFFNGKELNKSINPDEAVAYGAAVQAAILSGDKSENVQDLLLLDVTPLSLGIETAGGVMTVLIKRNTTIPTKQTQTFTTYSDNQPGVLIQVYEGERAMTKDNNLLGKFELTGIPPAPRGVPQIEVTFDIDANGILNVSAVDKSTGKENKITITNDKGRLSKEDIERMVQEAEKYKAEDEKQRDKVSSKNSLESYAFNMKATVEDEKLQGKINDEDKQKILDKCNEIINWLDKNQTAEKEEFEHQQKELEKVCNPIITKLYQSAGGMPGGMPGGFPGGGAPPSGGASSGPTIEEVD

compound: COC(=O)C#Cc1ccccc1 [methyl 3-phenylpropiolate]; assay: log2 ratio of iodoacetamide-alkyne labeling of the cysteine site, DMSO over compound (competition); higher = stronger covalent engagement of the cysteine by the compound, active = 1 or more; details: 500 µM; treatment time 1 h; system: HEK293T cell lysate
Outline: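 The log2 competition ratio per cysteine is defined as mean reporter intensity in control channels over mean reporter intensity in compound channels. Lysate from HEK293T cells (2 mg/mL) received electrophile (500 µM) or vehicle for 1 h at ambient temperature, followed by iodoacetamide alkyne for 1 h. Samples were clicked to sCIP-TMT reagents, pooled, trypsin-digested overnight at 37 °C, streptavidin-enriched, acid-eluted and run on Orbitrap Eclipse LC-MS/MS with FAIMS, with quantification in FragPipe. Three replicates with duplicate channels were used, and any cysteine quantified in only one replicate was excluded.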

log2 ratio of iodoacetamide-alkyne labeling, inactive:
HSP90AA1 C529 (UniProt P07900) 0.172, HSP90AA1 C374 (UniProt P07900) -0.0415, RPS2 C143 (UniProt P15880) 0.0382, UniProt P08240_C253 0.441, LAMB1 C1785 (UniProt P07942) 0.297, UniProt P0DN79_C244 -0.0339, HNRNPL C404 (UniProt P14866) -0.0806, EEF2 C41 (UniProt P13639) 0.173, PARP1 C128 (UniProt P09874) 0.229, UniProt P14618_C474 0.222, PRKCSH C500 (UniProt P14314) 0.513, UniProt P10155_C38 0.677, RPS2 C188 (UniProt P15880) 0.087, CAPN2 C82 (UniProt P17655) 0.0602, RPS2 C229 (UniProt P15880) 0.868, IDE C974 (UniProt P14735) 0.815, UniProt P0DMV8_C17 0.404, RNH1 C96 (UniProt P13489) 0.119, PFKM C114 (UniProt P08237) -0.169, DSP C1957 (UniProt P15924) 0.655, MAPT C639 (UniProt P10636) 0.479, HSPA8 C603 (UniProt P11142) 0.221
